{"source": "PubChem BioAssay AID1347076", "about": "(National Center for Advancing Translational Sciences (NCATS), 2019)", "note": "About 13,000 (3.2%) of roughly 400,000 compounds were called active. Inconclusive means that the source gave no clear call. Such entries were picked first, then a sample of the others. Calls come from the whole dose curve; as a rule, active = well fitted cell-killing curve with a large enough effect; inconclusive = small, poorly fitted or top-dose-only effect, or effect the other way; inactive = flat fitted curve, though single readings scatter. A potency beside an inconclusive call is a rough fit, not a confirmed value. % is set by controls: 0 for no effect and ±100 for the full control effect; potency is the fitted concentration of half-maximal effect."}
{"experiment": "qHTS assay for MDR1-selective chemotherapeutics: Primary screen using the drug-selected MDR subline cells KB-V1; note: nearly all actives have a fitted effect of over 60% in size", "details": "KB-V1 MDR cells viability, CellTiter-Glo, 72 h; activity change, negative = cytotoxicity: at 46.1 µM (top of the series)", "method_in_brief": "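Cytotoxicity via CellTiter-Glo luminescence after 72 h compound exposure at 37 degrees C. Cells: drug-selected KB-V1 line, DMEM phenol-red free plus 10% FBS. Compounds tested at multiple concentrations; normalized data fitted to concentration-effect curves.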"}
{"molecule": "O=c1c(=O)n2c(nn1Cc1ccc(F)cc1)sc1ccccc12", "Potency": "inactive"}
{"molecule": "COc1ccc(C2=Nn3c(nnc3-c3ccccc3Cl)SC2)cc1OCC1CC1", "Potency": "inconclusive: 29.1 µM [cytotoxic, single point]"}
{"molecule": "c1ccc(NC(c2ccccc2)c2ccncc2)cc1", "note": "(stereo not drawn)", "Potency": "inactive"}
{"molecule": "O=C1CCC(=O)N1CCC(=O)N(C(=O)NC1CCCCC1)C1CCCCC1", "Potency": "inactive"}
{"molecule": "Cc1ccc(NC(=O)COc2ccccc2C#N)cc1S(=O)(=O)N1CCCCCC1", "Potency": "inconclusive: 14.6 µM [cytotoxic, partial curve, poor fit]"}
{"molecule": "COc1ccc(C(=O)n2nc(-c3cccnc3)nc2NCc2ccccc2)cc1OC", "Potency": "inactive"}
{"molecule": "CC(C)COC(=O)C(C#N)c1nc2ccccc2nc1N1CCN(Cc2ccccc2)CC1", "note": "(stereo not drawn)", "Potency": "inconclusive: 32.6 µM [cytotoxic, single point]"}
{"molecule": "Cc1cccc(NC(=O)Cc2nc(-c3c[nH]c(C(=O)N4CCCC4)c3)cs2)c1", "Potency": "inconclusive: 23.1 µM [cytotoxic, single point]"}
{"molecule": "CC1(C)OC2OC(C3COC(=O)O3)C(OC(=O)c3ccccc3)C2O1", "note": "(stereo not drawn)", "activity change, negative = cytotoxicity": "inconclusive: 34.4%"}
{"molecule": "COc1ccc(CCNC(=O)C(=O)NCC(c2cccs2)S(=O)(=O)c2cccs2)cc1", "note": "(stereo not drawn)", "Potency": "inconclusive: 32.6 µM [cytotoxic, partial curve, poor fit]"}
{"molecule": "O=C(CCc1ccccc1)N1CCN(Cc2ccc(F)cc2Cl)CC1", "Potency": "inconclusive: 23.1 µM [rising, single point]"}
{"molecule": "COc1ccc(NC(=O)CSc2ccccc2)cc1S(=O)(=O)N1CCOCC1", "Potency": "inconclusive: 23.1 µM [cytotoxic, single point]"}
{"molecule": "Cc1ccc(CN2CCN(/N=C/C(Br)=C\\c3ccccc3)CC2)cc1", "Potency": "inconclusive: 23.1 µM [cytotoxic, single point]"}
{"molecule": "Cc1nnc(SCCN2CCOCC2)c2nn(-c3ccccc3F)c(C)c12", "Potency": "inconclusive: 29.1 µM [cytotoxic, single point]"}
{"molecule": "O=C(C[C@H]1C(=O)N(c2ccccc2)C[C@@H]1Cc1ccccc1)Nc1ccc(Br)cc1", "Potency": "inconclusive: 8.2 µM [cytotoxic, partial curve, poor fit]"}
{"molecule": "O=S1(=O)CCOC[C@H](CC2CCCCC2)N1Cc1ccc(F)cc1", "Potency": "inconclusive: 20.6 µM [cytotoxic, single point]"}
{"molecule": "CC(C)c1ccc(C2NC(=S)NC3=C2C(=O)CC(C)(C)C3)cc1", "note": "(stereo not drawn)", "Potency": "inconclusive: 14.6 µM [cytotoxic, partial curve]"}
{"molecule": "Cc1ccc([C@H]2C[C@H](n3cc(C4CC4)nn3)[C@@H](O)CN2CC2CCCCC2)cc1", "Potency": "inconclusive: 23.1 µM [cytotoxic, single point]"}
{"molecule": "Cc1ccc(-n2c(SCC(=O)Nc3cccc(S(N)(=O)=O)c3)nc3ccccc32)cc1", "Potency": "inactive"}
{"molecule": "CCOCCN1CCN(C2c3ccccc3CSc3ccccc32)CC1", "note": "(stereo not drawn)", "Potency": "inconclusive: 4.11 µM [cytotoxic, partial curve]"}
{"molecule": "CN1CCc2c(sc(NC(=O)c3ccc(S(=O)(=O)N4CCCCCC4)cc3)c2C(N)=O)C1", "Potency": "active: 20.6 µM"}
{"molecule": "Cc1ccc(-c2nnc(SCC(=O)NC(C)(C)C)nc2-c2ccc(C)cc2)cc1", "Potency": "inactive"}
{"molecule": "Cc1ccccc1C(=O)Nc1c2c(nc3ccccc13)CCCC2", "Potency": "inconclusive: 20.6 µM [cytotoxic, partial curve, poor fit]"}
{"molecule": "CCN(CC)c1ccc(/C=N/NC(=O)c2ccccn2)cc1", "Potency": "inconclusive: 29.1 µM [cytotoxic, single point]"}
{"molecule": "O=C(COc1ccccc1Cl)NC(=S)Nc1cccc(NC(=O)c2ccccc2Cl)c1", "Potency": "inactive"}
{"molecule": "COc1ccc(/C=N/Nc2nc(C)nc(N)n2)cc1", "Potency": "inconclusive: 0.517 µM [rising, full curve]"}
{"molecule": "CCOC(=O)c1c(NC(C)=O)sc2c1CCCNC2=O", "Potency": "inconclusive: 20.6 µM [cytotoxic, partial curve, poor fit]"}
{"molecule": "O=C(Nc1cccc(C(F)(F)F)c1)c1ccc2sc([C@H]3C[C@H](O)[C@@H](CO)O3)nc2c1", "Potency": "inactive"}
{"molecule": "CC(=O)CCc1ccccc1", "Potency": "inconclusive: 18.4 µM [rising, single point]"}
{"molecule": "CCOc1ccc(C(=O)N(Cc2nc(-c3cccc(C)c3)no2)C(C)C)cc1", "Potency": "inconclusive: 25.9 µM [cytotoxic, partial curve, poor fit]"}
{"molecule": "Cc1ccc(C(=O)N/C(=C\\c2ccccc2)C(=O)OCc2ccccc2)cc1", "Potency": "inconclusive: 8.2 µM [cytotoxic, partial curve]"}
{"molecule": "O=C(N/N=C\\c1ccc(Sc2ccccn2)o1)c1cccc(Br)c1", "Potency": "active: 23.1 µM"}
{"molecule": "C=CCn1c(N)c(C(=O)OC(C)CC)c2nc3ccccc3nc21", "note": "(stereo not drawn)", "Potency": "active: 8.2 µM"}
{"molecule": "Cc1onc(-c2ccccc2)c1C(=O)OCCOc1ccccc1F", "Potency": "inconclusive: 16.4 µM [cytotoxic, single point]"}
{"molecule": "COc1ccc2nc(SCC(=O)NC3CCCc4ccccc43)[nH]c2c1", "note": "(stereo not drawn)", "Potency": "active: 18.4 µM"}
{"molecule": "CCn1cnc2c1c(=O)n(Cc1cccc([N+](=O)[O-])c1)c(=O)n2Cc1ccccc1", "Potency": "inconclusive: 16.4 µM [cytotoxic, single point]"}
{"molecule": "O=c1c2ccccc2ccc2ccccc12", "Potency": "inconclusive: 25.9 µM [rising, single point]"}
{"molecule": "CCN(CC(=O)Nc1ccc(NC(C)=O)cc1)C(=O)/C=C/c1cn(-c2ccccc2)nc1-c1ccc(F)cc1", "Potency": "inactive"}
{"molecule": "COc1cccc(NC(=O)C2CCN(S(=O)(=O)c3ccc4c(c3)C(C)(C)C(=O)N4C)CC2)c1", "Potency": "inconclusive: 29.1 µM [rising, single point]"}
{"molecule": "Cc1nn(C)cc1C(C)NC(=O)c1cc(COc2cccc3cnccc23)on1", "note": "(stereo not drawn)", "Potency": "inconclusive: 9.2 µM [cytotoxic, partial curve, poor fit]"}
{"molecule": "COCCn1c(=NC(=O)CSCC(=O)N2CCOCC2)sc2ccccc21", "Potency": "inconclusive: 25.9 µM [cytotoxic, single point]"}
{"molecule": "Cc1c(C(=O)Nc2ccccn2)oc2c(Cl)cccc12", "Potency": "inconclusive: 20.6 µM [cytotoxic, partial curve, poor fit]"}
{"molecule": "CCOC(=O)c1ccc(Oc2nc(C)nc3c2oc2ccccc23)cc1", "Potency": "inconclusive: 2.91 µM [rising, full curve]"}
